# No constants are given. Whether binding was seen depends on the method and setting. Some results given as binding are weak or reduced against the parent protein; the word gives no strength. For some assays here: Tags and fused reporters may be left off the sequences shown.
# B1: recombinant NLRP1-FIIND^UPA-CARD (a.a. 1213-1473), bacteria-derived (domain or fragment, human, UniProt Q9C000 1213-1473, looked up)
# chain: SPLGVLLKMIHNALRFIPVTSVVLLYHRVHPEEVTFHLYLIPSDCSIRKAIDDLEMKFQFVRIHKPPPLTPLYMGCRYTVSGSGSGMLEILPKELELCYRSPGEDQLFSEFYVGHLGSGIRLQVKDKKDETLVWEALVKPGDLMPATTLIPPARIAVPSPLDAPQLLHFVDQYREQLIARVTSVEVVLDKLHGQVLSQEQYERVLAENTRPSQMRKLFSLSQSWDRKCKDGLYQALKETHPHLIMELWEKGSKKGLLPLSS
# notes: C-terminal auto-cleavage fragment (FIIND^UPA-CARD) of human NLRP1, a.a; 1213-1473; also called NLRP1-FIIND^UPA-CARD filaments; SNAP-NLRP1-FIIND^UPA-CARD
# B2: NLRP1 full-length FIIND-CARD (FIIND^fl-CARD) (domain or fragment, UniProt Q9C000 985-1473)
# chain: SRRKPSVMTPTEGLDTGEMSNSTSSLKRQRLGSERAASHVAQANLKLLDVSKIFPIAEIAEESSPEVVPVELLCVPSPASQGDLHTKPLGTDDDFWGPTGPVATEVVDKEKNLYRVHFPVAGSYRWPNTGLCFVMREAVTVEIEFCVWDQFLGEINPQHSWMVAGPLLDIKAEPGAVEAVHLPHFVALQGGHVDTSLFQMAHFKEEGMLLEKPARVELHHIVLENPSFSPLGVLLKMIHNALRFIPVTSVVLLYHRVHPEEVTFHLYLIPSDCSIRKAIDDLEMKFQFVRIHKPPPLTPLYMGCRYTVSGSGSGMLEILPKELELCYRSPGEDQLFSEFYVGHLGSGIRLQVKDKKDETLVWEALVKPGDLMPATTLIPPARIAVPSPLDAPQLLHFVDQYREQLIARVTSVEVVLDKLHGQVLSQEQYERVLAENTRPSQMRKLFSLSQSWDRKCKDGLYQALKETHPHLIMELWEKGSKKGLLPLSS
# Experiments:
# [1] = target: mCherry-tagged NLRP1-FIIND^UPA-CARD (human) (UniProt Q9C000); assay: native gel or EMSA; blue-native PAGE blot of mCherry-tagged NLRP1 constructs expressed in HEK293T cells at limiting, comparable expression levels
# [2] = target: NLRP1 full-length FIIND-CARD (FIIND^fl-CARD) (human) (UniProt Q9C000); assay: negative stain EM; purified recombinant fragments; diluted to 0.01-0.05 mg/ml immediately before grid preparation; T12 120 keV microscope; both purified
binder,measurement,setting,value
B1,binding,[1],binds
B2,binding,[2],no binding

# Reference: article PMC7794362, “Structural basis for distinct inflammasome complex assembly by human NLRP1 and CARD8” (Nature Communications, 2021)
